Assay results reported in PubChem BioAssay AID588590 (National Center for Advancing Translational Sciences (NCATS), 2011).
The campaign covered roughly 390,000 compounds. About 4,000 (1%) were called active. Inconclusive results, whose numbers are uncertain, are shown with a selection of clear calls. Calls come from the whole dose curve; as a rule, active = well fitted inhibition curve with a large enough effect; inconclusive = small, poorly fitted or top-dose-only effect, or another doubt; inactive = no such curve, though single readings can be large or run the other way. Where the call is inconclusive, the potency comes from a doubtful curve fit.

Chains of the proteins cited; added tags and fusions are not shown. Lines headed by an entry give the natural chain unless they say otherwise; changes in a name come on top.
UniProt Q9UNA4: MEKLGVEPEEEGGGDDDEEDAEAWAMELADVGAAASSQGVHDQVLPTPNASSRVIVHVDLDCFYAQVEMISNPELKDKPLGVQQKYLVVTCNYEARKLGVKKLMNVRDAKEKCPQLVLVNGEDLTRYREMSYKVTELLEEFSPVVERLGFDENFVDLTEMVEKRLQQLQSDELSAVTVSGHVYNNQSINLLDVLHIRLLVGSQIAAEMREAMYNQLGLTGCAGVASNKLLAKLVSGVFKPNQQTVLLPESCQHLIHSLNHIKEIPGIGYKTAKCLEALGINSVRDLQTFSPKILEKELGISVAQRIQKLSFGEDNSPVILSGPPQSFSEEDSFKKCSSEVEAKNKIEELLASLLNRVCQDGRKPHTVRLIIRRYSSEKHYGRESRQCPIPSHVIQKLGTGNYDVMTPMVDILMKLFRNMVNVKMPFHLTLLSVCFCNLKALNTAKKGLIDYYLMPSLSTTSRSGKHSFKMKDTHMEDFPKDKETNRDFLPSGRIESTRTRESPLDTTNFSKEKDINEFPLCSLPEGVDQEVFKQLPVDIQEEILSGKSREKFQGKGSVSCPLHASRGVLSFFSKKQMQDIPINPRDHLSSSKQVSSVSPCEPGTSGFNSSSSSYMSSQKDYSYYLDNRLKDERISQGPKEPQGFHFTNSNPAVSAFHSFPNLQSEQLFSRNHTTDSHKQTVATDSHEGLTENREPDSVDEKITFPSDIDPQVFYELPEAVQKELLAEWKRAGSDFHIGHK

Target: DNA polymerase iota (Homo sapiens) (UniProt Q9UNA4)
Assay: qHTS for Inhibitors of Polymerase Iota
Conditions: Pol iota fluorescent replication assay, 10 min; series mostly up to 115 µM
In short: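 Fluorescent replication assay read twice, at 0 min and 10 min after adding 50 nM (final) substrate. Enzyme (10 nM) and compounds were first incubated 15 min at room temperature; enzyme-free buffer wells were negative controls.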
Potency is the fitted concentration of half-maximal effect.

SMILES	Potency
O=C1c2cccc(Sc3ccccc3)c2C(=O)c2c(Sc3ccccc3)cccc21	inconclusive: 14.1 µM [inhibitor, partial curve]
NC(=O)C[C@H]1NC(=O)[C@H](CCC(=O)O)NC(=O)c2cc([N+](=O)[O-])cc(I)c2NCCC[C@@H](C(N)=O)NC1=O	inconclusive: 22.4 µM [inhibitor, full curve]
CCOC(=O)C1=C(O)/C(=C\c2ccc(CNS(=O)(=O)c3ccc(Br)cc3)o2)N=C1C	active: 15.8 µM
O=c1[nH]cc(CCc2ccccc2)c2ncncc12	inconclusive: 14.1 µM [inhibitor, partial curve, poor fit]
COc1ccc(CN2CC[C@H]3C=CC[C@@H](C(=O)Nc4ccccc4)[C@H]3C2=O)cc1OC	inconclusive: 17.8 µM [inhibitor, partial curve, poor fit]
CCc1ccc(CNC(=O)c2cnc3sc(N4CCCCCC4)nn3c2=O)cc1	inactive
Nc1nccnc1C(=O)OCC(=O)Nc1ccc2[nH]c(=O)[nH]c2c1	active: 20 µM
CCn1cc2nc(SCC(=O)Nc3cccc(Cl)c3C)n(Cc3ccc(Cl)cc3)c(=O)c2n1	inconclusive: 56.2 µM [inhibitor, partial curve, poor fit]
COc1ccc(C)cc1NC(=O)C1CC(=O)N(CCc2ccc(F)cc2)C1 (stereo unspecified)	inconclusive: 2.82 µM [inhibitor, full curve, poor fit]
O=C(NC(=S)Nc1ccc(N2CCOCC2)cc1)c1ccccc1	inactive
Cc1ccc(S(=O)(=O)Nc2ccc(S(=O)(=O)N3CCCC3)cc2)cc1	inconclusive: 17.8 µM [inhibitor, partial curve, poor fit]
O=C(Nc1cccc(C(=O)N2CCOCC2)c1)c1ncn[nH]1	inactive
O=C(N/N=C\c1c[nH]c2ccccc12)c1ccc(O)cc1	inactive
COc1cc(/C=N/NC(=O)c2ccc(CSc3nc4ccccc4[nH]3)cc2)cc(OC)c1OC	inconclusive: 11.2 µM [inhibitor, full curve]
Fc1ccc2cnc(-c3ccccc3)c(-c3cccc(C(F)(F)F)c3)c2c1	inconclusive: 22.4 µM [inhibitor, partial curve, poor fit]
O=C(N/N=C/c1ccc([N+](=O)[O-])o1)c1ccccc1-n1cccc1	inconclusive: 22.4 µM [inhibitor, partial curve, poor fit]
COC(=O)c1sccc1NC(=O)Nc1ccc(C(C)=O)cc1	inactive
O=C(C1CC1)N1CCc2cc(Br)cc(S(=O)(=O)Nc3ccc(C(F)(F)F)cc3)c21	inactive
CCN1C[C@@H]2[C@@H]3C(=O)N(C)C(=O)[C@@H]3[C@](C)(C(=O)OC)N2C1=NC	inconclusive: 22.4 µM [inhibitor, single point]
CCOC(=O)c1cc(S(=O)(=O)NCc2ccco2)cn1C	inconclusive: 1.12 µM [inhibitor, full curve, poor fit]
CSCCC1NC2(C(=O)Nc3c(Cl)cccc32)[C@@H]2C(=O)N(C3CCCC3)C(=O)[C@H]12 (stereo partly specified)	inconclusive: 17.8 µM [inhibitor, full curve, poor fit]

Another view of two compounds above:
SMILES | Potency
CCOC(=O)c1cc(S(=O)(=O)NCc2ccco2)cn1C | inconclusive: 1.12 µM [inhibitor, full curve, poor fit]
CSCCC1NC2(C(=O)Nc3c(Cl)cccc32)[C@@H]2C(=O)N(C3CCCC3)C(=O)[C@H]12 (stereo partly specified) | inconclusive: 17.8 µM [inhibitor, full curve, poor fit]

Next part

SMILES	Potency
Cc1cc(C)c(C)c(S(=O)(=O)NCc2ccc(C(=O)NCC3CCCO3)cc2)c1C (stereo unspecified)	inconclusive: 89.1 µM [inhibitor, single point]
CCCN(CCC)C(=O)C(CCC(=O)O)NC(=O)c1ccccc1 (stereo unspecified)	inconclusive: 1.26 µM [inhibitor, full curve, poor fit]
O=C(c1ccc2c3c(cccc13)CC2)C1CCCN(C(=O)c2ccc(=O)[nH]c2)C1 (stereo unspecified)	inconclusive: 25.1 µM [inhibitor, partial curve, poor fit]
CCN(N=O)c1ccc(/C=C2\C=Cc3ccccc32)cc1	inactive
O=C(O)c1cccc(CSc2nc(-c3ccc(Cl)cc3)cc(C(F)(F)F)n2)c1	inconclusive: 22.4 µM [inhibitor, full curve, poor fit]
O=S(=O)(Nc1cc(Cl)ccc1-n1cncn1)c1cc(Br)ccc1Br	inconclusive: 15.8 µM [inhibitor, partial curve, poor fit]
O=C(Cc1ccccc1)NC1CCN(C(=O)NCc2ccccc2)CC1	inconclusive: 31.6 µM [inhibitor, single point]
O=C(Nc1cccc(-c2nc3ccccc3[nH]2)c1)c1cccc(NC(=O)c2ccco2)c1	inconclusive: 25.1 µM [inhibitor, full curve, poor fit]
CCOc1ccc(CN2C(=O)c3ccccc3Sc3ccc(C(=O)NC4CCC(C)CC4)cc32)cc1 (stereo unspecified)	inactive
O=C(NNC(=O)C1CCC1)c1ccc(Cl)cc1	inconclusive: 100 µM [inhibitor, single point]
COc1ccc(C(CC(=O)N2CCCCC2)c2c(OC)cc(OC)c3c(-c4ccccc4)cc(=O)oc23)cc1 (stereo unspecified)	active: 70.8 µM
O=C(c1ccc(Cl)c(Cl)c1)N(Cc1ccco1)c1ccc(O)cc1	inconclusive: 1.78 µM [inhibitor, partial curve, poor fit]
N#Cc1ccc(/C=C2/C=Cc3ccccc32)cc1	inactive
Cc1ccc(N=Nc2c(N)[nH]n3c(=O)cc(-c4ccccc4)nc23)cc1	inactive
Cc1[nH]n(C(N)=S)c(=O)c1N=Nc1ccc([N+](=O)[O-])cc1Cl	active: 39.8 µM
C=C1[C@@H](O)[C@H](Cc2ccccc2)N(Cc2ccccc2Br)S1(=O)=O	inconclusive: 14.1 µM [inhibitor, full curve, poor fit]
COc1ccc(-c2noc(CSc3nnc(-c4ccncc4)n3-c3ccc(OC)cc3)n2)cc1	inactive
Cc1ccc(NC(=O)CSC(N)=O)cc1Cl	active: 12.6 µM
CC1=CC(=O)N(c2cccc3c(N4C(=O)C=C(C)C4=O)cccc23)C1=O	inconclusive: 56.2 µM [inhibitor, partial curve, poor fit]
C(=N\Nc1nccc(-c2cccnc2)n1)/c1ccccc1	inconclusive: 10 µM [inhibitor, full curve, poor fit]
